# Source: patent publication US20200155555A1, “VITAMIN RECEPTOR DRUG DELIVERY CONJUGATES FOR TREATING INFLAMMATION” (Endocyte, Inc., priority 2007, published 2020)
# Not every detail of the peptide structures is certain; ends, links or a residue may be inferred.
# Columns and labels:
# [1] = system: rats with collagen-induced arthritis (CIA); test: Collagen-induced arthritis (CIA) model; format: in vivo, female Lewis rats; conditions: EC0565 sc 1000 nmol/kg 3 times a week
# [2] = system: Proliferating Cell Nuclear Antigen (PCNA) in RAW264.7 cells; test: Western blot for proliferating cell nuclear antigen; format: cell-based, murine
# [3] = system: phosphorylation of S6 ribosomal protein (p-RPS6), mTOR signaling pathway; test: Western blot of p-RPS6 in RAW264.7, TG-macs and AIA-macs, EC0565; format: cell-based
compound,measurement,setting,value
"CO[C@H]1C[C@@H]2CC[C@@H](C)[C@@](O)(O2)C(=O)C(=O)N2CCCC[C@H]2C(=O)O[C@H]([C@H](C)C[C@@H]2CC[C@@H](OCCOC(=O)OCCSSC[C@H](NC(=O)[C@H](CCC(=O)NC[C@H](O)[C@@H](O)[C@H](O)[C@H](O)CO)NC(=O)[C@H](CCC(=O)O)NC(=O)[C@H](CCC(=O)NC[C@H](O)[C@@H](O)[C@H](O)[C@H](O)CO)NC(=O)[C@H](CCC(=O)O)NC(=O)[C@H](CCC(=O)NC[C@H](O)[C@@H](O)[C@H](O)[C@H](O)CO)NC(=O)CC[C@H](NC(=O)c3ccc(NCc4cnc5nc(N)[nH]c(=O)c5n4)cc3)C(=O)O)C(=O)O)[C@H](OC)C2)CC(=O)[C@H](C)/C=C(\C)[C@@H](O)[C@@H](OC)C(=O)[C@H](C)C[C@H](C)/C=C/C=C/C=C/1C [EC0565, Everolimus-EC0488 Conjugate]",efficacy in collagen-induced arthritis,[1],also effective in rats with collagen-induced arthritis
same,effect on PCNA in synchronized RAW264.7 cells,"[2]; 1-1000 nM, EC0565 2 h treatment and 48 h chase, everolimus 48 h",inhibited PCNA activities
same,inhibitory activity on PCNA blocked by excess EC17,"[2]; EC0565 at 1 nM, 1000× excess EC17",100%
same,effect on p-RPS6,"[3]; 1-100 nM, 1 h pulse, 6 h chase, RAW264.7, TG-macs, AIA-macs, reversed by excess EC17 or folic acid",down-regulation of p-RPS6 at nanomolar concentrations in all macrophages tested
same,potency on p-RPS6 relative to everolimus,[3]; TG-elicited macrophages,less potent than everolimus
